Measured values from doi:10.1101/2022.08.08.503215.

Amino acid sequences for entries named in this document (tags omitted).
UniProt P29514: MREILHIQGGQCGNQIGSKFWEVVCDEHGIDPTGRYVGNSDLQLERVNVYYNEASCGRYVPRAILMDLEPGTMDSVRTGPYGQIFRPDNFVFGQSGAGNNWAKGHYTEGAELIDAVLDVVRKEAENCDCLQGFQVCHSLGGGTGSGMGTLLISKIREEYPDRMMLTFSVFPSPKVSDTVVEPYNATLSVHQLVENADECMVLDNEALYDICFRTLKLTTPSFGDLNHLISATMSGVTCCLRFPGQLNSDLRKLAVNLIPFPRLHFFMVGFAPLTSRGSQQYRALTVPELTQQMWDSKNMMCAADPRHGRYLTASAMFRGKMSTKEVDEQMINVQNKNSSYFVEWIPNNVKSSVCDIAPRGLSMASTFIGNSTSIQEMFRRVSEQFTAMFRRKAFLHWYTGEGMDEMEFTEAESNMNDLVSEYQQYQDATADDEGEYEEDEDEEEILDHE
UniProt Q9T091: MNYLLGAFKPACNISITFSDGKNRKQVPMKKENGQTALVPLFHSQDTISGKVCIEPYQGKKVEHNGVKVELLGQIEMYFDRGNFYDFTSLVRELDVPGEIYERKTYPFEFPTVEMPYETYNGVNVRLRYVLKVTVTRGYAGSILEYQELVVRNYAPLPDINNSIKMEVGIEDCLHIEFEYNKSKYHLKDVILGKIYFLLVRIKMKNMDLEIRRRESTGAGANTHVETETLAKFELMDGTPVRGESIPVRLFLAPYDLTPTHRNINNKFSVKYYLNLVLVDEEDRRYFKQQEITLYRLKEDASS

T1: CDKD;3:YFP (Arabidopsis thaliana) (UniProt Q9LMT0)
T1 sequence: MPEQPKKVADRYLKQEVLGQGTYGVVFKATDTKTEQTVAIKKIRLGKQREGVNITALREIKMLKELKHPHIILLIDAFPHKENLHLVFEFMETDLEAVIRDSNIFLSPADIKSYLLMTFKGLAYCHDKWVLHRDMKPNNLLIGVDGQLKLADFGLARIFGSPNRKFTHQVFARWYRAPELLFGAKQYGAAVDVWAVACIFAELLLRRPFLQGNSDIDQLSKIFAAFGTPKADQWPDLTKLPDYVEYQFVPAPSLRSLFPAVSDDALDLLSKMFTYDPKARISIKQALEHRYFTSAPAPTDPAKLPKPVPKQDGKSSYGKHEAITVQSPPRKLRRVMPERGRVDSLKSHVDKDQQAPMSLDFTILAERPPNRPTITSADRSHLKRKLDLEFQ

B1: cyclin H (protein, UniProt Q8W5S1 1-336)
chain: MADFQTSTQRAKWIFTPQKLAERYKAANQRAVQMLEKCGTTQVEVDASGSLTYPKDKVGSGDQADKKLKPLSADEERFMRAFYEAKVQEVCSAFAFPHKIQATALQYFKRFYLQWSVMQHHPKEIMLTCVYAACKIEENHVSAEEIGKGINQDHRIILKYEMAVLQSLEFDLIVYAPYRAIEGFVNNMEEFLQARDDEIQKLESLLKGATAEADKVMLTDAPLLFPPGQLALASLRIANGVLGVIDFDRYLENIVSQPNSEHTTSELTKLLDNIEYLVKNYKCPSEKDMKHINRKLKSCLGHSSSHDESKKREKRSKHKSHRSSNDTPNGAPPPIG
B2: COATOMER SUBUNIT BETA-3 (protein, UniProt Q8L828 1-909)
chain: MPLRLDIKRKFAQRSERVKSVDLHPTEPWILASLYSGTVCIWNYQTQTITKSFEVTELPVRSAKFIPRKQWVVAGADDMYIRVYNYNTMDKVKVFEAHSDYIRCVAVHPTLPYVLSSSDDMLIKLWDWENGWACTQIFEGHSHYVMQVVFNPKDTNTFASASLDRTIKIWNLGSPDPNFTLDAHQKGVNCVDYFTGGDKPYLITGSDDHTAKVWDYQTKSCVQTLDGHTHNVSAVCFHPELPIIITGSEDGTVRIWHATTYRLENTLNYGLERVWAIGYIKSSRRVVIGYDEGTIMVKLGREIPVASMDSSGKIIWAKHNEIQTANIKSIGAGYEATDGERLPLSVKELGTCDLYPQSLKHNPNGRFVVVCGDGEYIIYTALAWRNRSFGSGLEFVWSSEGECAVRESSSKIKIFSKNFQERKSIRPTFSAEKIFGGTLLAMCSNDFICFYDWAECRLIQQIDVTVKNLYWAESGDLVAIASDTSFYILKYNRELVSSHFDSGRPTDEEGVEDAFEVLHENDERVRTGIWVGDCFIYNNSSWKLNYCVGGEVTTMYHLDRPMYLLGYIANQSRVYLVDKEFNVIGYTLLLSLIEYKTLVMRGDLDRANQILPTIPKEQHNNVAHFLESRGMIEDALEIATDPDYKFDLAIQLGRLEIAKEIAEEVQSESKWKQLGELAMSSGKLQLAEDCMKYAMDLSGLLLLYSSLGDAEGVSKLACLAKEQGKNNVAFLCLFTLGRLEDCLQLLVESNRIPEAALMARSYLPSKVSEIVALWREDLSKVNPKAAESLADPEEYSNLFEDWQVALSVEANTAETRGVYTAAENYPSHADKPSITLVEAFRNLQVEAEESLENGNIDHEVAEENGHVENEGDEEEQQEEEVNEEEGVVDADSTDGAVLVNGSEVLTPHP
B3: CDKD;2 (enzyme, UniProt Q9C9M7 1-348)
chain: MSKSGDNQPVDRYLRRQILGEGTYGVVYKATDTKTGKTVAVKKIRLGNQKEGVNFTALREIKLLKELNHPHIVELIDAFPHDGSLHLVFEYMQTDLEAVIRDRNIFLSPGDIKSYMLMTLKGLAYCHKKWVLHRDMKPNNLLIGENGLLKLADFGLARLFGSPNRRFTHQVFATWYRAPELLFGSRQYGAGVDVWAAGCIFAELLLRRPFLPGSTEIDQLGKIFQAFGTPVPSQWSDMIYLPDYMEFSYTPAPPLRTIFPMASDDALDLLAKMFIYDPRQRITIQQALDHRYFSSSPSPTEPGKLQIPASKGDALEPKASEQNQHGNSPAVLSPPGKMRRVMGPEGFT

Biological target: T1, CDKD;3:YFP (Arabidopsis thaliana)
Assay: affinity purification with mass spectrometry

binding | Molecule
binds | TUBULIN BETA-6 (from UniProt P29514 1-449)
binds | VACUOLAR PROTEIN SORTING-ASSOCIATED PROTEIN 26B (from UniProt Q9T091 1-303)
binds | B1
binds | B2
binds | B3

These are yes or no findings as the source states them, for the method shown. Binding seen in cells or lysates may run through a third protein. Here binding means that the protein was enriched with, or labelled near, the bait; the list need not be complete. Tags and fused reporters may be left off the sequences shown.
